# Experimental data taken from PubChem BioAssay AID1347075 (National Center for Advancing Translational Sciences (NCATS), 2019).
# Values joined by “and” are separate entries in the source; they are usually repeats but may differ in a detail not shown here. Equal entries are not always repeated. The campaign covered roughly 400,000 compounds. About 5,500 (1.4%) were called active. Where a call stands in place of a potency, no number is given. Inconclusive means that the source gave no clear call. Such entries were picked first, then a sample of the others. Calls follow the shape of the dose curve; as a rule, active = well fitted cell-killing curve with a large enough effect; inconclusive = small, poorly fitted or top-dose-only effect, or effect the other way; inactive = flat fitted curve, though single readings scatter. Potencies of inconclusive entries are doubtful fits and often do not repeat.
# Assay: qHTS assay for MDR1-selective chemotherapeutics: Primary screen using the parental adenocarcinoma cell KB-3-1; also: nearly all actives have a fitted effect of over 60% in size
# Settings: KB-3-1 viability, CellTiter-Glo ATP luminescence, 72 h; series mostly up to 46.1 µM
# In short: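 Cytotoxicity in the drug-sensitive parental line KB-3-1 was scored as loss of CellTiter-Glo luminescence following 72 h incubation with compound. Values come from curve fitting of normalized concentration-response data.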
# Potency is read from the fitted curve at half-maximal effect.
row,Structure (SMILES),Potency
1,Cc1cc(N2CCCCC2)nc2ccc(NC(=O)c3ccc(Br)o3)cc12,"inconclusive: 18.4 µM [cytotoxic, single point]"
2,OC[C@@H]1CN(Cc2ccc(Cl)cc2)C[C@H](n2cnc3c(NC4CC4)ncnc32)O1,inactive
3,CC(C)c1cc(Cn2c3ccccc3c(=O)n2C(C)CBr)on1 (stereo unspecified),inactive
4,COc1ccccc1NC(=O)c1cnc(SCC(=O)NCCc2ccccc2)n(C)c1=O,inactive
5,COC(=O)c1ccccc1COc1cccn2c(N(C)CC3CC3)c(C)nc12,"inconclusive: 20.6 µM [cytotoxic, single point]"
6,CC(C)Sc1nc(NCc2ccco2)c2c3c(sc2n1)COC(C)(C)C3,inactive
7,CO/N=C/c1ccc(N2CCN(C(=O)c3ccc(C)cc3)CC2)c([N+](=O)[O-])c1,"inconclusive: 29.1 µM [cytotoxic, single point]"
8,CN(C)NC1CCS(=O)(=O)C1 (stereo unspecified),inactive
9,COc1ccc(C(=O)N2CCN(c3ccccn3)CC2)cc1[N+](=O)[O-],inactive
10,Cc1ccc(-c2nnc(N3CCN(C(=O)CN4CCOCC4)CC3)c3ccccc23)cc1,inactive
11,COc1ccc(NS(=O)(=O)N2CCOCC2)cc1,inactive
12,Cc1cc(NC(=O)CSc2nc3ccsc3c(=O)n2CCCC(=O)NCCc2ccccc2)no1,"inconclusive: 16.4 µM [rising, partial curve]"
13,COc1ccc(C2=NN(C(=O)CSc3nc4ccccc4s3)C(c3ccc(F)cc3)C2)cc1 (stereo unspecified),"inconclusive: 16.4 µM [cytotoxic, partial curve]"
14,CC(C)(C)NC(=O)COC(=O)/C=C/c1ccc(F)cc1,inactive
15,CCOC(=O)c1[nH]c2cc(OC)c(OC)cc2c1NC(=O)C(C)N1CCN(Cc2ccccc2)CC1 (stereo unspecified),"inconclusive: 16.4 µM [cytotoxic, partial curve, poor fit]"
16,CCOc1ccccc1CNC(=O)C1CCCN(c2nnc(C)c3c(C)n(-c4ccccc4)nc23)C1 (stereo unspecified),"inconclusive: 9.2 µM [cytotoxic, partial curve] and inconclusive: 18.4 µM [cytotoxic, single point]"
17,CC1=NOC2(C1)N(C)c1ccccc1C2(C)C (stereo unspecified),inactive
18,Cc1ccc(-c2nc3ccccc3c(=O)n2Cc2ccccc2)cc1,inactive
19,COc1ccc(OC)c(S(=O)(=O)n2cnc3ccccc32)c1,"inconclusive: 14.6 µM [cytotoxic, partial curve, poor fit]"
20,COC(=O)C1CCc2c(ccc3c2CCCC3)C1=O (stereo unspecified),"inconclusive: 16.4 µM [rising, single point]"
21,CC(C)(C)c1ccc(C2CC2C(=O)N/N=C\c2ccc[nH]2)cc1 (stereo unspecified),active: 14.6 µM

# Pulled one by one from above (2):
row,Structure (SMILES),Potency
21,CC(C)(C)c1ccc(C2CC2C(=O)N/N=C\c2ccc[nH]2)cc1 (stereo unspecified),active: 14.6 µM
7,CO/N=C/c1ccc(N2CCN(C(=O)c3ccc(C)cc3)CC2)c([N+](=O)[O-])c1,"inconclusive: 29.1 µM [cytotoxic, single point]"
